Assay [1] has as its target human soluble RAGE (sRAGE), prepared from a baculovirus expression system (human) (UniProt Q15109). Description: elution from Affi-gel with adsorbed RAGE; radioligand binding assay with 125I-sRAGE.
Assay [2] has as its target RAGE on macrophage-like BV2 cells (macrophage (MP) RAGE) (UniProt Q62151). Kind of assay: radioligand binding on BV2 cells, data not shown.

By UniProt entry, the sequences of proteins in these tests, tags left out. Residues count along the entry.
UniProt Q15109, residues 23-342: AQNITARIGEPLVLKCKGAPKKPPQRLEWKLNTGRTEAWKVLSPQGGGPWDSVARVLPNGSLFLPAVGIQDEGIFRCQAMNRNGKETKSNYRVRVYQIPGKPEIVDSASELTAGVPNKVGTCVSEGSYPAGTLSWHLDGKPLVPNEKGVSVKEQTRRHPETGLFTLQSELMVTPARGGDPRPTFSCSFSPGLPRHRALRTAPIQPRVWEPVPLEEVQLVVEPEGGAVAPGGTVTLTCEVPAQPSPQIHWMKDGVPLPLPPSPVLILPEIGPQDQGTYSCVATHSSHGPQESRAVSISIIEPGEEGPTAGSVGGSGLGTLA
UniProt Q62151, residues 23-402: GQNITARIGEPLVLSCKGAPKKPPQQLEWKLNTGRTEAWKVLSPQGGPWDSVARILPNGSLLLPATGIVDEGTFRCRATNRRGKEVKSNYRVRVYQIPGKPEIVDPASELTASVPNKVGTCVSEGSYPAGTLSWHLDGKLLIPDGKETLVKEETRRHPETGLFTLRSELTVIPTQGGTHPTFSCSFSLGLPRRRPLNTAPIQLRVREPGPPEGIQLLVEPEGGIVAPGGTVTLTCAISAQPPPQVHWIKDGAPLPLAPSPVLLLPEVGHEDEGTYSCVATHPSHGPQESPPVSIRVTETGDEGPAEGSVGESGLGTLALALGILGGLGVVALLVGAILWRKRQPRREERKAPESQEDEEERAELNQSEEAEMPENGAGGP
UniProt P10103, residues 2-215: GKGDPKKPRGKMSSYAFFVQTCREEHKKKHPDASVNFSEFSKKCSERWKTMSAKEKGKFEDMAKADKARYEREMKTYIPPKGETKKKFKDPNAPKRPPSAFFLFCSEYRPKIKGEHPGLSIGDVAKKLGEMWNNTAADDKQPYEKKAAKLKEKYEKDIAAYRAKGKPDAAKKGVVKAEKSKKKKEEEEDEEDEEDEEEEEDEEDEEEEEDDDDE

These are yes or no findings as the source states them, for the method shown. Some results given as binding are weak or reduced against the parent protein; the word gives no strength.

In the case of “amphoterin, ≈23 kDa polypeptide eluted from the RAGE column (bovine lung extract) (from UniProt P10103 2-215) (ligand)”, in assay [1], the binding entry was “binds”.

B1: EN-RAGE (Extracellular Novel RAGE binding protein), recombinant bovine, expressed in Sf9 cells (ligand)
chain: TKLEDHLEGIINIFHQYSVRVGHFDTLNKRELKQLITKELPKTLQNTKDQPTIDKIFQDLDADKDGAVSFEEFVVLVSRVLKTAHIDIHK
notes: Recombinant protein made from a bovine lung cDNA in baculovirus/Sf9; In the cell assays it was unlabelled; also called radiolabelled EN-RAGE
As for B1, in assay [2], the binding entry is recorded as “binds”.

The values are drawn from patent US6670136 (TRUSTEES OF COLUMBIA UNIVERSITY IN THE CITY OF NEW YORK, dated 2003).
